PMC11458557
These are yes or no findings as the source states them, for the method shown. Blank lines part the entries; values can stand above or below the binder they belong to.

Assays:
Test in all cases: SEC; Superdex200 column; 50 mM Tris, 150 mM NaCl, 0.5 mM TCEP, pH 7.5; both purified
[1] = biological target: Sirt2 aa56 to 389 (Sirt2 ΔN2) (human) (UniProt Q8IXJ6)
[2] = biological target: Sirt2 core construct, aa56 to 356 (Sirt2 ΔCN) (human) (UniProt Q8IXJ6)
[3] = biological target: T1, Sirt2 aa1-356 (Sirt2 ΔC) (human), Q8IXJ6; conditions: remark: other sources report otherwise
T1 chain: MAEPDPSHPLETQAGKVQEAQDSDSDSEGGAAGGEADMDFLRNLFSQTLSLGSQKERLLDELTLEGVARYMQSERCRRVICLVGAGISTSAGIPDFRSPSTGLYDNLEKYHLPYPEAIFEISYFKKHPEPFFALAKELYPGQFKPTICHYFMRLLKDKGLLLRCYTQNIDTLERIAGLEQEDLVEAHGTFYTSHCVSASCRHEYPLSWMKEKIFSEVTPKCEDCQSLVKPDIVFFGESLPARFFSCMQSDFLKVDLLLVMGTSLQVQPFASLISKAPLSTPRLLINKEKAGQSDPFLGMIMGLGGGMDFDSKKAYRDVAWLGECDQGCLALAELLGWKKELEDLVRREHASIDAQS

[4] = biological target: T2, Sirt2 isoform 2 splice variant aa38 to 389 (Sirt2 ΔN1) (human), Q8IXJ6; conditions: remark: other sources report otherwise
T2 chain: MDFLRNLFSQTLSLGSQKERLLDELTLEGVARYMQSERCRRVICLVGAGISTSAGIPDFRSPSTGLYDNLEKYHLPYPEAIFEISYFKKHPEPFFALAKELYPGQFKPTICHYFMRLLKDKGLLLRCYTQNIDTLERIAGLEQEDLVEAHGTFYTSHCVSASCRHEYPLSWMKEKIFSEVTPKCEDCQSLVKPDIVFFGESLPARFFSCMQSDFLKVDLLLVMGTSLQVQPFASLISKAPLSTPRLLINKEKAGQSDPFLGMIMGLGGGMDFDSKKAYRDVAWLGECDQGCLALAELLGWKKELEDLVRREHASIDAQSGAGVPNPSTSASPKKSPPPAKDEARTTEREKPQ

[5] = biological target: T3, full-length Sirt2 (aa1-389, Sirt2-FL) (human), Q8IXJ6; conditions: remark: other sources report otherwise
T3 chain: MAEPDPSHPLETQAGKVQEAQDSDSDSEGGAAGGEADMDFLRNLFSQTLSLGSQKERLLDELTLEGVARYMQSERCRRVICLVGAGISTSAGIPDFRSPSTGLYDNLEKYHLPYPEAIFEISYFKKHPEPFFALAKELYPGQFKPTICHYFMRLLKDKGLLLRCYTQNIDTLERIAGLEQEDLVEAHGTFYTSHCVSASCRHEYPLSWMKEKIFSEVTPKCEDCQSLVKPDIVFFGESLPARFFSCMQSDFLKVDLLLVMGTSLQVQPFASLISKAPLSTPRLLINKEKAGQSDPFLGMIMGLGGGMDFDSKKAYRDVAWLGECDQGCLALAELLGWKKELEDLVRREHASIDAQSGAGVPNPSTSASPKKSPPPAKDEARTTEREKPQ

B3: Sirt2 aa1-356 (Sirt2 ΔC), Q8IXJ6 1-356 (domain or fragment)
chain: T1 chain
- binding [3]: no binding

B5: full-length Sirt2 (aa1-389, Sirt2-FL), Q8IXJ6 1-389 (enzyme)
chain: T3 chain
- binding [5]: no binding

The next lines start with the values.

- binding [1]: no binding
B1: Sirt2 aa56 to 389 (Sirt2 ΔN2) (domain or fragment, UniProt Q8IXJ6 56-389)
chain: ERLLDELTLEGVARYMQSERCRRVICLVGAGISTSAGIPDFRSPSTGLYDNLEKYHLPYPEAIFEISYFKKHPEPFFALAKELYPGQFKPTICHYFMRLLKDKGLLLRCYTQNIDTLERIAGLEQEDLVEAHGTFYTSHCVSASCRHEYPLSWMKEKIFSEVTPKCEDCQSLVKPDIVFFGESLPARFFSCMQSDFLKVDLLLVMGTSLQVQPFASLISKAPLSTPRLLINKEKAGQSDPFLGMIMGLGGGMDFDSKKAYRDVAWLGECDQGCLALAELLGWKKELEDLVRREHASIDAQSGAGVPNPSTSASPKKSPPPAKDEARTTEREKPQ

- binding [2]: no binding
B2: Sirt2 core construct, aa56 to 356 (Sirt2 ΔCN) (domain or fragment, UniProt Q8IXJ6 56-356)
chain: ERLLDELTLEGVARYMQSERCRRVICLVGAGISTSAGIPDFRSPSTGLYDNLEKYHLPYPEAIFEISYFKKHPEPFFALAKELYPGQFKPTICHYFMRLLKDKGLLLRCYTQNIDTLERIAGLEQEDLVEAHGTFYTSHCVSASCRHEYPLSWMKEKIFSEVTPKCEDCQSLVKPDIVFFGESLPARFFSCMQSDFLKVDLLLVMGTSLQVQPFASLISKAPLSTPRLLINKEKAGQSDPFLGMIMGLGGGMDFDSKKAYRDVAWLGECDQGCLALAELLGWKKELEDLVRREHASIDAQS

- binding [4]: no binding
B4: Sirt2 isoform 2 splice variant aa38 to 389 (Sirt2 ΔN1), Q8IXJ6 38-389 (domain or fragment)
chain: T2 chain
